Experimental data published in paper PMC2211299.
Results are given in words; binding and its absence hold for the method and conditions named. Binding seen in cells or lysates may run through a third protein. Some results given as binding are weak or reduced against the parent protein; the word gives no strength.

The chains behind the UniProt entries cited, without tags or fusion partners.
UniProt O97758: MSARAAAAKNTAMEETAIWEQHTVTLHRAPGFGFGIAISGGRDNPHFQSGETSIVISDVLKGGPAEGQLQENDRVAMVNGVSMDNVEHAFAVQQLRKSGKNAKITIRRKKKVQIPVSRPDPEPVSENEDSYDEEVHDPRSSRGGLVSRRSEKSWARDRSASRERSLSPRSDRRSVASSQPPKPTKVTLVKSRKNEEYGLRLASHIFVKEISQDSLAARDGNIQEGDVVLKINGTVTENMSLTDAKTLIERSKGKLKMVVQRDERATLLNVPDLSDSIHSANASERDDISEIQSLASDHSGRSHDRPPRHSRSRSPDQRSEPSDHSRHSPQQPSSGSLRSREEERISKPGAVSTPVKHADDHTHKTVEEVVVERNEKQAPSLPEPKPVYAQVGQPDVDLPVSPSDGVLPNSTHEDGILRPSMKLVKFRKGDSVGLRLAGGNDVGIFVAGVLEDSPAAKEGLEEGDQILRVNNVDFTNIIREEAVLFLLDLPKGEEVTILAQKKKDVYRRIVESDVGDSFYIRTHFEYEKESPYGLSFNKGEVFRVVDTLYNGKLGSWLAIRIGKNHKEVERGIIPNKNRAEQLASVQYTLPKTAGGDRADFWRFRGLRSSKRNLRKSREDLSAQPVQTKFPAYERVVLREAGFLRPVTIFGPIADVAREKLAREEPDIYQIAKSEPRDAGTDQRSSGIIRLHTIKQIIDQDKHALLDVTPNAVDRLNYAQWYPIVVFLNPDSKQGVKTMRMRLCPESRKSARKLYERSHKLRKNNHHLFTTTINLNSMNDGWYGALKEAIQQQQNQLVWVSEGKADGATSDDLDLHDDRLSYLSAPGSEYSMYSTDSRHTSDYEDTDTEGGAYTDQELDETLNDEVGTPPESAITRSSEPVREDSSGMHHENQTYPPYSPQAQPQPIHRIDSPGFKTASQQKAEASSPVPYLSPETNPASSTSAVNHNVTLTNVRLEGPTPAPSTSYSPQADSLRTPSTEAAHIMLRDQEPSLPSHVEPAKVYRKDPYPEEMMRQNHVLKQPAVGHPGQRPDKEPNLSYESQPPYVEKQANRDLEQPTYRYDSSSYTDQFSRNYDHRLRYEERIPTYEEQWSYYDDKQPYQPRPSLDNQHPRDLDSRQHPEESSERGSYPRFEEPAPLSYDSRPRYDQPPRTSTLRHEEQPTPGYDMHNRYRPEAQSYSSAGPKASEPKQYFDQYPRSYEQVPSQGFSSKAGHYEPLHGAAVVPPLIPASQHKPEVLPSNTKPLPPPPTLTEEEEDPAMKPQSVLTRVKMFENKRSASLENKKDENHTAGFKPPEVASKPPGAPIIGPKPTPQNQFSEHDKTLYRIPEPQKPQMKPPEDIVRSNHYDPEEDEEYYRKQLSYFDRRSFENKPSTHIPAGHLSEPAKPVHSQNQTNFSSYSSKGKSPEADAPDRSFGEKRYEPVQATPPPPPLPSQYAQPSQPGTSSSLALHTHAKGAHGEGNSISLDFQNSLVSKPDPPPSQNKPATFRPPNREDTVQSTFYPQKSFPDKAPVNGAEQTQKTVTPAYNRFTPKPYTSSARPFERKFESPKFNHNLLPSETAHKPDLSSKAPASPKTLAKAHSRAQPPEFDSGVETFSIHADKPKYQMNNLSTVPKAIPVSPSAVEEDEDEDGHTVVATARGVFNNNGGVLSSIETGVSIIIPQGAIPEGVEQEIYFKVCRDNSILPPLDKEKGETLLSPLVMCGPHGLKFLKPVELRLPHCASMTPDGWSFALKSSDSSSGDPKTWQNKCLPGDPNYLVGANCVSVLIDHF

Molecular target: ZO-1 (dog (endogenous in MDCK)) (UniProt O97758)
Experiment: co-IP; data not shown; MDCK cells during junction formation (calcium switch) compared with stable monolayers; which protein was precipitated is not told

B1: heat shock protein Apg-2 (protein, UniProt Q2TFN9 1-840)
chain: MSVVGIDLGFQSCYVAVARAGGIETIANEYSDRCTPACISFGPKNRSIGAAAKSQVISNAKNTVQGFKRFHGRAFSDPFVEAEKSNLAYDIVQLPTGLTGIKVKYMEEERNFTTEQVTAMLLSKLKETAESVLKKPVVDCVVSVPCFYTDAERRSVMDATQIAGLNCLRLMNETTAVALAYGIYKQDLPALEEKPRNVVFVDMGHSSYQVSVCAFNRGKLKVLATAFDTTLGGRKFDEVLVNHFCEEFGKKYKLDIKSKIRALLRLSQECEKLKKLMSANASDLPLSIECFMNDVDVSGTMNRGKFLEMCDDLLARVEPPLRSVLEQAKLRKEDIYAVEIVGGATRIPAVKEKISKFFGKELSTTLNADEAVTRGCALQCAILSPAFKVREFSITDVVPYSISLRWNSPAEEGSSDCEVFTKNHSAPFSKVLTFYRKEPFTLEAYYSSPQDLPYPDPAIAQFLVQKVTPQSDGSSSKVKVKVRVNVHGIFSVSSASLVEVLKFEENEEPMETDQNAKEEEKMQVDQEEPHAEEQQQQTPAENKAESEEMETSQAASKDKKMDQPPQAKKAKVKTSTVDLPIENQLLWQIDREMLNLYIENEGKMIMQDKLKKERNDAKNAVEEYVYEMRDKLSGEYEKFVSEDDRNSFTLKLEDTENWLYEDGEDQPKQVYVDKLAELKNLGQPIKMRFQESEERPKLFEELGKQIQQYMKVISSFKNKEDQYDHLDAADMLKVEKSTNEAMEWMNNKLNLQNKQSLTVDPVVKAKEIEAKIKELMSVCGPIISKPKPKVEPPKEEQKNAEQNGPVDGQGDSPGPQAAEQGTDTAVPSDSDKKLPEMDID
  binding: binds
